Columns and labels:
[1] = Corrosion inhibition weight-loss measurement; details: 2M HCl with 500 ppm additive, open vials, immersion 120 h; blank 3.4% loss
[2] = High pressure autoclave gas hydrate formation test; details: 0.5 wt %; for conversion of water to hydrate (conversion ratio): watercut 30, 120 bar natural gas, 4° C. for 10 hrs, pure water 77.36%; for maximum relative torque (τrel,max): watercut 30, 600 rpm stirring, during hydrate formation, pure water 1.74; for subcooling of the temperature at hydrate formation / hydrate formation onset time: watercut 30, decane continuous phase, 120 bar natural gas, cooling 24→4° C. at 0.25 K/min, 600 rpm, average of 10 experiments; for subcooling of the temperature at hydrate formation: pure water 7.01 K; for hydrate formation onset time: pure water 33.42 min

Row | Structure (SMILES) | weight loss of carbon steel coupon [1] [% loss] | conversion of water to hydrate (conversion ratio) [2] [%] | maximum relative torque (τrel,max) [2] | subcooling of the temperature at hydrate formation [2] [K] | hydrate formation onset time [2] [min]
1 | Cc1c(C)c2c(c(C)c1O)CCC(C)(CCCC(C)CCCC(C)CCCC(C)C)O2 (racemic) [racemic alpha tocopherol] | 2.69 |  |  |  | 
2 | Cc1c(C)c2c(c(C)c1O)CC[C@@](C)(CCC[C@H](C)CCC[C@H](C)CCCC(C)C)O2 [(+) alpha-tocopherol] | 2.88 |  |  |  | 
3 | CCCCCCCCCCCC[N+](C)(C)C.[Br-] [DTAB, dodecyltrimethylammonium bromide, reference compound] |  | 73.79 | 1.32 | 5.9 | 29.10
4 | Cc1c(C)c2c(c(C)c1OC(=O)CCC(=O)O)CCC(C)(CCCC(C)CCCC(C)CCCC(C)CCCC(C)C)O2 (stereo not shown) [tocopherol succinate] |  | 73.35 | 1.18 | 8.19 | 54.27

Source: patent US20200148937A1, “INHIBITING HYDROCARBON HYDRATE AGGLOMERATION” (COMMONWEALTH SCIENTIFIC AND INDUSTRIAL RESEARCH ORGANISATION, priority 2017, published 2020)
